Where “and” joins values, the source holds several entries; their conditions need not be identical. Equal entries are not always repeated. Structures can show the parent of a compound that is named as a salt. ± gives the standard deviation of the averaged measurements. Over roughly 1,800 compounds, “GFP- (p16Ink4a-) cell count relative to negative-control wells” has its median near 0.99; the lowest 2% begin near 0.5. The list shows a part of the results.

This experiment deals with mouse p16Ink4a+/- lung fibroblasts (INKBRITE, bleomycin-injured). Kind of experiment: GFP- (p16Ink4a-) cell count relative to negative-control wells (fold of vehicle); higher = more p16Ink4a- cells surviving. The note with it: 1 µM; 3 days.
`COc1nc(C)cnc1NS(=O)(=O)c1cccnc1-c1ccc(-c2nnco2)cc1` [Zibotentan] showed a GFP- of 1.19.

The molecule `COc1cc(N2CCC(N)CC2)ccc1Nc1ncc(Cl)c(-c2c[nH]c3ccccc23)n1` came in with a GFP- of 0.795.

Molecule `CNC(=O)c1ccc(-c2cnc3ncc(Cc4ccc5ncccc5c4)n3n2)cc1F` gave a GFP- of 0.845.

For `COc1cc(Cc2cnc(N)nc2N)cc(OC)c1OC` [Trimethoprim], the GFP- came to 1.04.

As for `COc1ccccc1OCCNCC(O)COc1cccc2[nH]c3ccccc3c12` (stereo not given) [Carvedilol, Carvedilol Phosphate], the GFP- was 0.96.

`O=C[C@H](O)[C@@H](O)[C@H](O)CO` [Xylose] displayed a GFP- of 0.97.

Molecule `Cc1ccccc1N1C(=O)c2cc(S(N)(=O)=O)c(Cl)cc2NC1C` (stereo not given) [Metolazone] displayed a GFP- of 0.905.

In turn, `CC[C@@]1(O)C(=O)OCc2c1cc1n(c2=O)Cc2cc3c(CN(C)C)c(O)ccc3nc2-1` [Topotecan, Topotecan Hydrochloride] came in with a GFP- of 0.647.

Take `Nc1nc(O)c2ncn([C@@H]3O[C@H](CO)[C@@H](O)[C@H]3O)c2n1` [Guanosine]: the GFP- came to 1.01.

Regarding `Cn1ccnc1S` [Methimazole], the GFP- was determined as 1.01.

On to `COc1ccc2[nH]c(S(=O)Cc3ncc(C)c(OC)c3C)nc2c1` (stereo not given) [Esomeprazole; Omeprazole], for which the GFP- is 1.03 and 1.31.

As to `COc1ccc(C2CNC(=O)C2)cc1OC1CCCC1` (stereo not given) [Rolipram], the GFP- stood at 1.01.

As to `CC[C@@H]1C(=O)N(C)c2cnc(Nc3ccc(C(=O)NC4CCN(C)CC4)cc3OC)nc2N1C1CCCC1`, the GFP- came out at 0.766.

Molecule `CC(=O)S[C@@H]1CC2=CC(=O)CC[C@]2(C)[C@H]2CC[C@@]3(C)[C@@H](CC[C@@]34CCC(=O)O4)[C@H]12` [Spironolactone] showed a GFP- of 1.07.

On to `O=c1cc(-c2ccccc2)oc2cc(O)c(O)c(O)c12` [Baicalein], for which the GFP- worked out at 1.03.

On to `COc1cc2nc(N3CCN(C(=O)C4CCCO4)CC3)nc(N)c2cc1OC` (stereo not given) [Terazosin], for which the GFP- amounted to 0.942.

Regarding `COc1cc2c(N3CCN(C(=O)Nc4ccc(OC(C)C)cc4)CC3)ncnc2cc1OCCCN1CCCCC1`, the GFP- worked out at 0.944.

`CS(=O)(=O)OCCCCOS(C)(=O)=O` [Busulfan] had a GFP- of 0.83.

With `O=C(CS(=O)Cc1ccco1)NC/C=C\COc1cc(CN2CCCCC2)ccn1` (stereo not given) [Lafutidine], the GFP- turned out to be 1.11.

On to `COc1ccc(C2=NC(c3ccc(Cl)cc3)C(c3ccc(Cl)cc3)N2C(=O)N2CCNC(=O)C2)c(OC(C)C)c1` (stereo not given) [Nutlin-3], for which the GFP- was 0.835.

For `COc1cc(OC)c(C(=O)CCCN2CCCC2)c(OC)c1` [Buflomedil, Buflomedil Hydrochloride], the GFP- was 1.18.

Molecule `C=C1CC[C@@H]2[C@](C)(CO)[C@H](O)CC[C@@]2(C)[C@@H]1C/C=C1/C(=O)OCC1O` (stereo not given in full) [Andrographolide] showed a GFP- of 1.05.

`CCn1c2ccccc2c2cc(Nc3ccnc(NCCCN4CCOCC4)n3)ccc21`: the GFP- was 0.951.

As to `CC(C)n1nc(-c2ccc3oc(N)nc3c2)c2c(N)ncnc21`, the GFP- turned out to be 0.552.

As for `O=C1CN2Cc3c(ccc(Cl)c3Cl)N=C2N1` [Anagrelide], the GFP- stood at 1.06.

In turn, `COc1ccc2cc3[n+](cc2c1OC)CCc1cc2c(cc1-3)OCO2` [Berberine] registered a GFP- of 0.956.

Take `Cc1ccc(Nc2nccc(N(C)c3ccc4c(C)n(C)nc4c3)n2)cc1S(N)(=O)=O` [Pazopanib]: the GFP- was 0.999 and 1.07.

Take `CC(=O)O[C@]1(C(C)=O)CC[C@H]2[C@@H]3C=C(C)C4=CC(=O)CC[C@]4(C)[C@H]3CC[C@@]21C` [Megestrol Acetate]: the GFP- came to 1.09.

Molecule `CC1(C)CCC(CN2CCN(c3ccc(C(=O)NS(=O)(=O)c4ccc(NCC5CCOCC5)c([N+](=O)[O-])c4)c(Oc4cnc5[nH]ccc5c4)c3)CC2)=C(c2ccc(Cl)cc2)C1` [Venetoclax] showed a GFP- of 0.921.

`CCCCCCCCCCC[C@@H](C[C@@H]1OC(=O)[C@H]1CCCCCC)OC(=O)[C@H](CC(C)C)NC=O` [Orlistat]: the GFP- amounted to 0.994.

In turn, `CO[C@H]1/C=C/O[C@@]2(C)Oc3c(C)c(O)c4c(O)c(c5c(nc6cc(C)ccn65)c4c3C2=O)NC(=O)/C(C)=C\C=C\[C@H](C)[C@H](O)[C@@H](C)[C@@H](O)[C@@H](C)[C@H](OC(C)=O)[C@@H]1C` [Rifaximin] showed a GFP- of 0.919.

In turn, `CCC1(c2ccccc2)C(=O)NCNC1=O` [Primidone] registered a GFP- of 1.04.

`CN(CCOc1ccc(NS(C)(=O)=O)cc1)CCc1ccc(NS(C)(=O)=O)cc1` [Dofetilide] returned a GFP- of 1.07.

`COc1cc([C@@H]2c3cc4c(cc3[C@@H](O[C@@H]3O[C@@H]5CO[C@@H](c6cccs6)O[C@H]5[C@H](O)[C@H]3O)[C@H]3COC(=O)[C@H]23)OCO4)cc(OC)c1O` [Teniposide] had a GFP- of 0.832.

For the molecule `CC(C)(Oc1ccc(Cl)cc1)C(=O)O` [Clofibric Acid], the GFP- worked out at 1.12.

`CC1(C)[C@@H](O)CC[C@]2(C)[C@H]3C(=O)C=C4[C@@H]5C[C@@](C)(C(=O)O)CC[C@]5(C)CC[C@@]4(C)[C@]3(C)CC[C@@H]12` [Enoxolone] yielded a GFP- of 1.02.

The molecule `Cc1ccccc1C(=O)Nc1ccc(C(=O)N2CCCC(N(C)C)c3ccccc32)cc1` (stereo not given) [Mozavaptan] had a GFP- of 0.893.

`CCO[C@@H]1OC(=O)C[C@@H]1NC(=O)[C@@H]1CCCN1C(=O)[C@@H](NC(=O)c1ccc(N)c(Cl)c1)C(C)(C)C` yielded a GFP- of 1.02.

Turning to `NC12CC3CC(CC(C3)C1)C2` [Amantadine], the GFP- came out at 1.07.

The molecule `C[C@@H](c1ncncc1F)[C@](O)(Cn1cncn1)c1ccc(F)cc1F` [Voriconazole] yielded a GFP- of 0.915.

For the molecule `CCOC(=O)C1=C(N)Oc2ccc(Br)cc2[C@H]1[C@H](C#N)C(=O)OCC`, the GFP- is 1.02.

As for `CC(=O)O[C@]1(C(C)=O)CC[C@H]2[C@@H]3CCC4=CC(=O)CCC4=C3[C@@H](c3ccc(N(C)C)cc3)C[C@@]21C` [Ulipristal], the GFP- was determined as 1.04.

`Cc1cccc(C#Cc2ccccc2)n1` registered a GFP- of 1.06.

In the case of `O=C(C1CCCCC1)N1CC(=O)N2CCc3ccccc3C2C1` (stereo not given) [Praziquantel], the GFP- was 0.998.

`O=C1OC(CN2CCOCC2)CN1/N=C/c1ccc([N+](=O)[O-])o1` (stereo not given) [Furaltadone] showed a GFP- of 1.

Regarding `CCN(CCO)CCCOc1ccc2c(Nc3cc(CC(=O)Nc4cccc(F)c4)[nH]n3)ncnc2c1`, the GFP- was 0.97 ± 0.11.

In turn, `C=CC1=C(C(=O)O)N2C(=O)[C@@H](NC(=O)/C(=N\O)c3csc(N)n3)[C@H]2SC1` [Cefdinir] registered a GFP- of 0.894.

The molecule `Cc1cc(C)c(Nc2ccnc(Nc3ccc(C#N)cc3)n2)c(C)c1` [Dapivirine] came in with a GFP- of 1.05.

`CC(C)C[C@H](NC(=O)[C@H](CCc1ccccc1)NC(=O)CN1CCOCC1)C(=O)N[C@@H](Cc1ccccc1)C(=O)N[C@@H](CC(C)C)C(=O)[C@@]1(C)CO1` [Carfilzomib] came in with a GFP- of 0.433.

Consider `CCCC(=O)OCO/C(O)=C1\C(C)=NC(C)=C(C(=O)OC)C1c1cccc(Cl)c1Cl` (stereo not given) [Clevidipine], for which the GFP- was 1.03.

As to `O=C[C@H](O)[C@@H](O)[C@H](O)[C@H](O)CO` [D-glucose], the GFP- worked out at 1.03.

On to `Cc1cc(Nc2ccc(NC(=O)c3ccc(Nc4ccnc5ccccc45)cc3)cc2)nc(N)n1`, for which the GFP- turned out to be 0.955 ± 0.18.

`COc1ccc(-c2cnc3c(-c4cccc5ncccc45)cnn3c2)cc1` had a GFP- of 1.1.

The molecule `C=CC(=O)Nc1cccc(Nc2nc(Nc3ccc(OCCOC)cc3)ncc2F)c1` showed a GFP- of 0.914.

`CCN(CC)C(=O)/C(C#N)=C/c1cc(O)c(O)c([N+](=O)[O-])c1` [Entacapone]: the GFP- turned out to be 0.982 ± 0.1.

`Cc1ccc(C(=O)NCCCCCC(=O)Nc2ccccc2N)cc1` gave a GFP- of 0.741 ± 0.13.

For the molecule `CN1c2cc(O)c(N=NC(N)=O)cc2CC1S(=O)(=O)O` (stereo not given) [Carbazochrome sodium sulfonate], the GFP- turned out to be 1.12.

For `CCCCc1oc2ccc(NS(C)(=O)=O)cc2c1C(=O)c1ccc(OCCCN(CCCC)CCCC)cc1` [Dronedarone], the GFP- worked out at 1.09.

The molecule `O=C1CC2(CCCC2)CC(=O)N1CCCCN1CCN(c2ncccn2)CC1` [Buspirone] returned a GFP- of 0.997.

As to `O=C(CCCN1CCN(c2ccccn2)CC1)c1ccc(F)cc1` [Azaperone], the GFP- was 0.895.

Molecule `CC(N)C12CC3CC(CC(C3)C1)C2` (stereo not given) [Rimantadine] displayed a GFP- of 1.09.

Molecule `C/C=C1/[C@H]2C=C(C)C[C@]1(N)c1ccc(O)nc1C2` [(-)-Huperzine A (HupA)] showed a GFP- of 0.949.

Molecule `COc1ccc(C[C@@H]2c3cc(OC)c(OC)cc3CC[N@+]2(C)CCC(=O)OCCCCCOC(=O)CC[N@@+]2(C)CCc3cc(OC)c(OC)cc3[C@H]2Cc2ccc(OC)c(OC)c2)cc1OC` [Cisatracurium Besylate] registered a GFP- of 1.

In turn, `CCOC(=O)c1c(C)n(C)c2ccc(O)cc12` [Mecarbinate] yielded a GFP- of 1.21.

As for `O=C1c2ccccc2C(=O)C1c1ccccc1` [Phenindione], the GFP- was found to be 1.01.

`COc1ccc2cc1Oc1ccc(cc1)C[C@H]1c3c(cc4c(c3Oc3cc5c(cc3OC)CCN(C)[C@@H]5C2)OCO4)CCN1C` [Cepharanthine] showed a GFP- of 0.859.

Molecule `O=C(O)c1cc(-c2ccccc2)nc2ccccc12` [Cinchophen] displayed a GFP- of 0.932.

For `CN(C)C(=O)c1ccc(S(=O)(=O)c2ccc(NC(=O)[C@@](C)(O)C(F)(F)F)c(Cl)c2)cc1`, the GFP- was 0.95.

Molecule `CC1(C)O[C@@H]2C[C@H]3[C@@H]4CCC5=CC(=O)C=C[C@]5(C)[C@H]4[C@@H](O)C[C@]3(C)[C@]2(C(=O)CO)O1` [Desonide] returned a GFP- of 0.846.

`Cc1ccc2c(Cl)cc(Cl)c(O)c2n1` [Chlorquinaldol] showed a GFP- of 0.851.

`COCCn1c2c([n+](Cc3cnccn3)c1C)C(=O)c1ccccc1C2=O` [Sepantronium Bromide] came in with a GFP- of 0.99.

Molecule `COc1ccc(C[C@H](C)NC[C@@H](O)c2ccc(O)c(NC=O)c2)cc1` [Formoterol Fumarate Dihydrate] displayed a GFP- of 0.96.

As to `CNC(=O)c1ccc2cc(C3(O)CCn4cncc43)ccc2c1` (stereo not given) [Orteronel], the GFP- turned out to be 1.13.

On to `Cc1ccccc1C(C(=O)NC1CCCCC1)N(C(=O)Cn1ccnc1C)c1cccc(F)c1` (stereo not given), for which the GFP- was found to be 1.09.

In turn, `COc1ncc(-c2ccc3nccc(-c4ccnnc4)c3c2)cc1NS(=O)(=O)c1ccc(F)cc1F` came in with a GFP- of 0.515.

The values above are taken from the supplement of paper PMC11060735.
